Measured values as given in paper PMC11264591.
These are yes or no findings as the source states them, for the method shown. In cells and extracts the contact can be indirect. A result given as binding can be weak or reduced; the word gives no strength. Where a sequence is shown, tags or fusion partners need not be part of it.

Columns and labels:
[1] = molecular target: T1, HA-EccGAS (Epinephelus coioides cyclic GMP-AMP synthase) (Epinephelus coioides); experiment: co-IP; co-transfected cells lysed with RNase to remove a possible RNA bridge; Western blot
T1 sequence: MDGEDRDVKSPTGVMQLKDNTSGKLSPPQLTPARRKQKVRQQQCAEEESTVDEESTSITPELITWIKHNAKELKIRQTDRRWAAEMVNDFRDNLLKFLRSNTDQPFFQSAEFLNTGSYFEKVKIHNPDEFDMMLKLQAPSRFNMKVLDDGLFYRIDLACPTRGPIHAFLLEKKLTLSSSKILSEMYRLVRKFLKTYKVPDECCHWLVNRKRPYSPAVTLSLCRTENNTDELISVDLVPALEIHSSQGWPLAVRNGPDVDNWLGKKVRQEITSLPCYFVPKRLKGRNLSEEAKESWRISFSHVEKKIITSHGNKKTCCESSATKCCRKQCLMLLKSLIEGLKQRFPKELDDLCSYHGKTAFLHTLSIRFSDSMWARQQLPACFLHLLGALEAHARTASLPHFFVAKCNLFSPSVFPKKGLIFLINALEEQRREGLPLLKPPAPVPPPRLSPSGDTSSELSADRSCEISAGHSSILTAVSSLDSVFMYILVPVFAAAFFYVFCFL

[2] = molecular target: T1, HA-EccGAS (Epinephelus coioides cyclic GMP-AMP synthase) (Epinephelus coioides); experiment: co-IP; GB or HEK 293T cells co-transfected with HA-EccGAS and GFP-tagged NNV proteins; lysate precipitated with anti-HA magnetic beads; Western blot
[3] = molecular target: T1, HA-EccGAS (Epinephelus coioides cyclic GMP-AMP synthase) (Epinephelus coioides); experiment: co-IP; co-IP of EccGAS and EcUBE3C in transfected cells (Fig. 7B); cells, tags and beads not told
[4] = molecular target: GFP-ProA (NNV Protein A, RNA-dependent RNA polymerase) (nervous necrosis virus (OGNNV, RGNNV genotype)); experiment: co-IP; cells co-transfected with HA-EccGAS and GFP-tagged NNV proteins; lysate precipitated with anti-GFP magnetic beads; Western blot
[5] = molecular target: GFP-CP (NNV capsid protein) (nervous necrosis virus (OGNNV, RGNNV genotype)); experiment: as above

Molecule	binding [1]	binding [2]	binding [3]	binding [4]	binding [5]
GFP-ProA (NNV Protein A, RNA-dependent RNA polymerase)	binds	binds	–	–	–
EcUBE3C (Epinephelus coioides E3 ubiquitin ligase UBE3C) (enzyme)	–	–	binds	–	–
GFP-CP (NNV capsid protein)	binds	binds	–	–	–
HA-EccGAS (Epinephelus coioides cyclic GMP-AMP synthase) (protein, UniProt A0A509ZL19 1-503) MDGEDRDVKSPTGVMQLKDNTSGKLSPPQLTPARRKQKVRQQQCAEEESTVDEESTSITPELITWIKHNAKELKIRQTDRRWAAEMVNDFRDNLLKFLRSNTDQPFFQSAEFLNTGSYFEKVKIHNPDEFDMMLKLQAPSRFNMKVLDDGLFYRIDLACPTRGPIHAFLLEKKLTLSSSKILSEMYRLVRKFLKTYKVPDECCHWLVNRKRPYSPAVTLSLCRTENNTDELISVDLVPALEIHSSQGWPLAVRNGPDVDNWLGKKVRQEITSLPCYFVPKRLKGRNLSEEAKESWRISFSHVEKKIITSHGNKKTCCESSATKCCRKQCLMLLKSLIEGLKQRFPKELDDLCSYHGKTAFLHTLSIRFSDSMWARQQLPACFLHLLGALEAHARTASLPHFFVAKCNLFSPSVFPKKGLIFLINALEEQRREGLPLLKPPAPVPPPRLSPSGDTSSELSADRSCEISAGHSSILTAVSSLDSVFMYILVPVFAAAFFYVFCFL	–	–	–	binds	binds
